Test results as given in PubChem BioAssay AID2551 (National Center for Advancing Translational Sciences (NCATS), 2010).
Where “and” joins values, the source holds several entries; their conditions need not be identical. Identical values can stand only once. Hit rate of the full screen: of about 310,000 compounds, about 17,000 (5.5%) were called active. This list was built around the results that the source calls inconclusive (neither active nor inactive); the mix of calls is not that of the screen. The call rests on the fitted dose curve; in most records, active means well fitted inhibition curve with a large enough effect; inconclusive means small, poorly fitted or top-dose-only effect, or effect the other way; inactive means no such curve, though single readings can be large or run the other way. Where the call is inconclusive, the potency comes from a doubtful curve fit.

Protein sequences, listed by entry. Tags and fused reporters are not part of them. Lines headed by an entry give the natural chain unless they say otherwise; changes in a name come on top.
UniProt P51450: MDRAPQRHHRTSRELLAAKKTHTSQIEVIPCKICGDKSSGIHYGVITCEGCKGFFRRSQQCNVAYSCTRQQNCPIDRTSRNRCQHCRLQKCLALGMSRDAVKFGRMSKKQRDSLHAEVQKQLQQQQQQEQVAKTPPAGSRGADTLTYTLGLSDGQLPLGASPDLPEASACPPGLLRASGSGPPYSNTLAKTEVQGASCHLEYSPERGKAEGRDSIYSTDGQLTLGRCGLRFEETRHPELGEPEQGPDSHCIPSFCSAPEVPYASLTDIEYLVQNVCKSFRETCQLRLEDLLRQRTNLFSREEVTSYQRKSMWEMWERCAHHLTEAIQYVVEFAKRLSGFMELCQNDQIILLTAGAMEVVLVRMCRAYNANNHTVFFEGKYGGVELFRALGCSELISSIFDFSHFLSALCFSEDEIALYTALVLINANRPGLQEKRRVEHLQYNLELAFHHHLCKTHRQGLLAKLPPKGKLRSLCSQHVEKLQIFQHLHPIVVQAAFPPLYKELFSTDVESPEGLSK

The molecules below were run against Nuclear receptor ROR-gamma (Mus musculus) (UniProt P51450) (assay: qHTS for inhibitors of ROR gamma transcriptional activity). Details: Drosophila S2 Gal4-RORgamma UAS-luciferase reporter, 20 h; activity change, negative = inhibition: at 53.6 µM (top of the series).
In short: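 Drosophila S2 cells stably expressing Gal4-DBD/mouse RORγ fusion under metallothionein promoter plus UAS-luciferase; compound 1 h, then 700 uM CuSO4 induction for 20 h at ambient temperature; inhibition read as reduced luminescence.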
Further: nearly all actives have a fitted effect of over 60% in size.
On the % scale 0 is the no-effect control and ±100 the full control effect; potency means the concentration at half of the fitted maximal effect.

Question: `CCCOc1ccc(-c2csc(N)n2)cc1[N+](=O)[O-]` was tested. Which Potency did it give?
Answer: The Potency was inconclusive: 4.47 µM [activator, partial curve].

Question: How did the Potency turn out when `C=CCn1c(CCCOc2ccc(Cl)cc2Cl)nnc1SCC(=O)Nc1nccs1` was run?
Answer: Its Potency is inconclusive: 22.4 µM [inhibitor, single point].

Question: For `O=C(NCCc1ccc(F)cc1)N1CCOCC1`, which Potency is on record?
Answer: Its Potency is inconclusive: 3.98 µM [activator, single point].

Question: `COc1ccc(N=c2scc(-c3ccc(S(=O)(=O)N4CCOCC4)cc3)n2CCCO)cc1` was tested. Which Potency did it give?
Answer: The Potency was inconclusive: 0.0056 µM [activator, full curve, poor fit].

Question: With `O=C(Nc1ccccc1)Nc1cccc(C(F)(F)F)c1` as the molecule, how does the Potency read?
Answer: The Potency was inconclusive: 11.2 µM [activator, partial curve].

Question: How did the Potency turn out when `C/C(N)=C(/C#N)C(=O)CSc1nnc(Nc2cccc(C)c2C)s1` was run?
Answer: Its Potency is inconclusive: 14.1 µM [activator, single point].

Question: For `O=C(N/N=C/C=C/c1ccc2c(c1)OCO2)c1ccc([N+](=O)[O-])cc1`, which Potency is on record?
Answer: Its Potency is active: 2 µM.

Question: Which Potency does the source give for `O=C(NC(=S)NCC1CCCO1)c1cccc([N+](=O)[O-])c1` (stereo not given) here?
Answer: Its Potency is inconclusive: 14.1 µM [inhibitor, single point].

Question: Which Potency does the source give for `O=C(CCOc1ccccc1)N1CCN(c2ccc(O)cc2)CC1` here?
Answer: The Potency was “inactive”.

Question: With `Cc1cccc(-n2ncc3c(NCc4ccco4)ncnc32)c1` as the molecule, how does the Potency read?
Answer: The Potency was inconclusive: 0.631 µM [activator, full curve, poor fit].

Question: How did the Potency turn out when `Nc1nc(N)c(N=O)c(OCC2CCCCC2)n1` was run?
Answer: The Potency was inconclusive: 10 µM [activator, partial curve, poor fit] and inconclusive: 3.98 µM [activator, full curve].

Question: For `CCOC(=O)c1cnn(-c2ccc(C(F)(F)F)cn2)c1N`, which Potency is on record?
Answer: Its Potency is inconclusive: 0.891 µM [activator, full curve, poor fit].

Question: `O=C(CC12CC3CC(CC(C3)C1)C2)N/N=C/c1ccc([N+](=O)[O-])o1` was tested. Which Potency did it give?
Answer: Its Potency is active: 10 µM.

Question: With `Cc1cccc(C)c1N1CC(=O)N(c2c(C)cccc2C)CC1=O` as the molecule, how does the Potency read?
Answer: Its Potency is “inactive”.

Question: With `c1coc(CNc2c3c(nc4ccccc24)CCC3)c1` as the molecule, how does the Potency read?
Answer: Its Potency is “inactive”.

Question: Which Potency does the source give for `O=C(NC(=S)Nc1ccc(CN2CCOCC2)cc1)c1ccc2c(c1)OCCO2` here?
Answer: The Potency was inconclusive: 10 µM [inhibitor, partial curve, poor fit].

Question: Which Potency does the source give for `O=C(Nc1ccc(NC(=O)c2ccccn2)cc1)C(=O)Nc1ccc2c(c1)OCCO2` here?
Answer: Its Potency is inconclusive: 1.26 µM [activator, full curve, poor fit].

Question: For `Cc1ccc(Nc2ccccc2N)cc1`, which Potency is on record?
Answer: Its Potency is active: 11.2 µM.

Question: `O=C(CN1CCN(Cc2ccccc2F)C1=O)NCc1cccnc1` was tested. Which Potency did it give?
Answer: The Potency was inconclusive: 20 µM [activator, single point].

Question: With `Cc1c(Cl)cccc1NC(=S)N=Nc1c(O)n(CN2CCOCC2)c2ccccc12` as the molecule, how does the Potency read?
Answer: Its Potency is active: 1.78 µM.

Question: Which Potency does the source give for `COCCCNC(=O)CN(c1cc(Cl)cc(Cl)c1)S(C)(=O)=O` here?
Answer: Its Potency is inconclusive: 7.94 µM [activator, partial curve, poor fit].

Question: Which Potency does the source give for `CC1=CC(=O)C(C(C)C)=C/C1=N/OS(=O)(=O)c1ccccc1` here?
Answer: The Potency was active: 2.82 µM.

Question: `CCNC(=S)N(Cc1cc2cccc(C)c2[nH]c1=O)C1CCCC1` was tested. Which Potency did it give?
Answer: The Potency was inconclusive: 35.5 µM [inhibitor, single point].

Question: For `Cc1nc2cnc(Oc3cccc(Cl)c3)nc2n(Cc2ccc(F)cc2)c1=O`, which Potency is on record?
Answer: Its Potency is inconclusive: 15.8 µM [activator, single point].

Question: `Cc1c(C)n(Cc2ccc(Cl)cc2)c2ccc(C(=O)NCCCN3CCOCC3)cc12` was tested. Which Potency did it give?
Answer: The Potency was inconclusive: 25.1 µM [inhibitor, single point].

Question: Which Potency does the source give for `C=C1c2ccccc2O[C@H](C(=O)OCC)[C@@H]1CC(C)(C)c1ccccc1` here?
Answer: The Potency was “inactive”.

Question: How did the Potency turn out when `Cc1c2c(c(C)n1C)C(C(=O)NC1CCCCC1)N(Cc1ccccc1)C2=O` (stereo not given) was run?
Answer: The Potency was inconclusive: 35.5 µM [inhibitor, single point].

Question: With `S=C(NCC1CCCO1)Nc1ccccc1Cl` (stereo not given) as the molecule, how does the Potency read?
Answer: Its Potency is inconclusive: 35.5 µM [inhibitor, single point].

Question: How did the Potency turn out when `CC(Oc1ccc(Br)cc1)C(=O)N1CCN(c2ccccn2)CC1` (stereo not given) was run?
Answer: Its Potency is “inactive”.

Question: Which Potency does the source give for `CC(C)(C)CC(C)(C)c1cc(Cc2cc(C(C)(C)CC(C)(C)C)cc(-n3nc4ccccc4n3)c2O)c(O)c(-n2nc3ccccc3n2)c1` here?
Answer: Its Potency is “inactive”.

Question: How did the Potency turn out when `Cn1ccc(C(=O)NC(=S)Nc2ccc([N+](=O)[O-])cc2O)n1` was run?
Answer: Its Potency is inconclusive: 2.82 µM [activator, single point].

Question: How did the Potency turn out when `Cc1ccc(O)c(N/C=C/C(=O)c2ccc(F)cc2)c1` was run?
Answer: The Potency was inconclusive: 3.98 µM [inhibitor, partial curve, poor fit].

Question: Which Potency does the source give for `Cc1nc(C)c(C(=O)N/N=C/c2cc(Br)ccc2O)s1` here?
Answer: The Potency was active: 3.16 µM.

Question: With `CC(C)NC(=S)NC(=O)/C=C/c1cccc2ccccc12` as the molecule, how does the Potency read?
Answer: The Potency was active: 1.41 µM.

Question: Which Potency does the source give for `O=C(Nc1ccc(N2CCOCC2)cc1)C1CCCCN1S(=O)(=O)c1ccccc1` (stereo not given) here?
Answer: Its Potency is “inactive”.

Question: How did the Potency turn out when `Cn1c(=NC(=O)CCl)sc2ccccc21` was run?
Answer: The Potency was inconclusive: 10 µM [inhibitor, partial curve].

Question: Which Potency does the source give for `O=c1c(-c2ccc(F)cc2)nc2cnc(Nc3ccccc3)nc2n1C[C@H]1CCCO1` here?
Answer: The Potency was “inactive”.

Question: `Cc1ccc(-c2csc(NC(=O)CSc3nc(C)cc(=O)[nH]3)n2)cc1` was tested. Which Potency did it give?
Answer: Its Potency is inconclusive: 22.4 µM [inhibitor, single point].

Question: `Cc1noc(NS(=O)(=O)c2ccc(N/C=C\C(=O)c3ccc4c(c3)OCO4)cc2)c1C` was tested. Which Potency did it give?
Answer: Its Potency is inconclusive: 28.2 µM [activator, partial curve, poor fit].

Question: How did the Potency turn out when `CCOC(=O)c1sc(Nc2nc3cc4c(cc3s2)OCO4)cc1C` was run?
Answer: Its Potency is active: 5.01 µM.

Question: How did the Potency turn out when `Cc1ccc(C)c(-c2cc(C(=O)NNC(=S)NCC(C)C)c3ccccc3n2)c1` was run?
Answer: Its Potency is active: 1.12 µM.

Question: How did the Potency turn out when `COC(=O)c1ccc2nc(-c3cccc(N)c3)cn2c1` was run?
Answer: Its Potency is active: 6.31 µM.

Question: Which activity change, negative = inhibition does the source give for `CC1(C)O[C@H]2C[C@@H]3[C@H]4CCC5=CC(=O)CC[C@@]5(C)[C@]4(F)[C@@H](O)C[C@@]3(C)[C@@]2(C(=O)CCl)O1` here?
Answer: Its activity change, negative = inhibition is inactive: -32.4% [at 2.98 µM].

Question: How did the Potency turn out when `COc1ccc(N=C2NC(=O)/C(=C/C=C/c3ccccc3)S2)cc1` was run?
Answer: The Potency was “inactive”.

Question: Which Potency does the source give for `Cc1nnc2ccc(N3CCC4(CC3)OCCO4)nn12` here?
Answer: The Potency was inconclusive: 15.8 µM [inhibitor, partial curve].
